Measurements taken from patent US8853213B2, “Bicyclic compound for modulating G protein-coupled receptors” (Hanmi Pharm. Co., Ltd, priority 2011, dated 2014).
Structures were worked out from names or drawings and are uncertain.

Amino acid sequences for entries named in this document (tags omitted).
UniProt Q8TDV5, whole entry: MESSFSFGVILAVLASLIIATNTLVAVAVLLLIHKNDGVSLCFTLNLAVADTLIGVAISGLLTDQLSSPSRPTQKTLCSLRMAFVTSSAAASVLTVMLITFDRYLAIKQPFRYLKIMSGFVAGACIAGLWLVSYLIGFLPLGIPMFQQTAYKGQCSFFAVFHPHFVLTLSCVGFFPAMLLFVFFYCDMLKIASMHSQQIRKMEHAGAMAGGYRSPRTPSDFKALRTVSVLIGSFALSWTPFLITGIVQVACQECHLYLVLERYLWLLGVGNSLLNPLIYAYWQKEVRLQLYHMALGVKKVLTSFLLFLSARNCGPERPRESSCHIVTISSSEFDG

Target: GPR119 (Homo sapiens, UniProt Q8TDV5)
Assay: Controlling Effect of GPR119 in CRE-bla CHO-K1 Cells (EC50)
Details: read-out: controlling effect against GPR119 in CRE-bla CHO-K1 cell line (EC50), 5 hr incubation with compound, β-lactamase LiveBLAzer-FRET B/G readout
Experimental: Controlling Effect of GPR119 in CRE-bla CHO-K1 Cells (EC50)
The day before the experiment, GPR119 CRE-bla CHO-K1 cell line purchased from Invitrogen was seeded in a 96 black well plate in an amount of 80 μl at a density of 5×10^4 cells. After the seeding, 10 μl of doxycycline in a concentration of 1 μg/ml was added to each well and incubated in an incubator at 37° C. under 5% CO2 for about 16 to 20 hr.
The day of experiment, sample compounds were performed a 10-fold serial dilution with a culture medium at various concentrations of 1 uM to […]. Considering that the culture medium used in the seeding and doxycycline are together applied, the sample compounds were diluted to a 5-fold dilution of the planned concentration. 20 μl of the compound diluted with the culture medium was added to each well and incubated in the incubator for 5 hr. The compound-untreated group was added with 20 μl of 0.5% dimethyl sulfoxide (DMSO) diluted with the culture medium. […] Fluorescence intensity value of blue channel and green channel was determined by a fluorescence microplate reader at 409 nm/460 nm and 409 nm/[…] (excitation/emission), respectively. In order to confirm the controlling effect of the inventive compounds against GPR119, EC50 (half maximal effective concentration) was determined based on the determined values. […]

EC50: 100 to 1000 nM
Structure (SMILES): CC(C)c1nc(N2CCC(N(C)c3ncnc4c(-c5ccc(S(C)(=O)=O)cc5)csc34)CC2)no1
